Some entries share one result that the patent states for a list of compounds. For at least one compound, name, drawing or mass did not settle the structure.
System: FR-positive M109 tumors
Test: Tissue distribution, subcutaneous M109 tumors (Example 11)
Conditions: co-administered with a 100-fold excess of folic acid
Experimental: The ability of ^99mTc-EC20 to target tumors in vivo was assessed using a FR-positive M109 model.
Four to five week-old mice (Balb/c strain) were purchased from Harlan Sprague Dawley, Inc. (Indianapolis, Ind.) and were maintained on a folate-free diet for a total of three weeks prior to the experiment. Syngeneic, FR-positive M109 tumor cells (1×10^6 per animal) were inoculated in the subcutis of the right axilla two weeks prior to the experiment.
Animals received an approximate 40 μmol/kg i.v. dose of test article in 100 μL volume via a lateral tail vein during brief diethyl ether anesthesia. Four hours post-injection, animals were sacrificed by CO2 asphyxiation, and dissected. Selected tissues were removed, weighed, and counted to determine ^99mTc distribution. CPM values were decay-corrected, and results were tabulated as % injected dose per gram of wet weight tissue.

Structure (SMILES)	blocking of accumulation in the FR-positive tumor and kidneys
Nc1nc2ncc(CNc3ccc(C(=O)N[C@@H](CCC(=O)N[C@H](CCC(=O)NC[C@@H]4[NH2+][99Tc-]56(=[O])[S]C[C@@H](C(=O)O)[N]5C(=O)[C@H](CC(=O)O)[N]6C4=O)C(=O)O)C(=O)O)cc3)nc2c(=O)[nH]1 [^99mTc-EC14]	> 94%
Nc1nc2ncc(CNc3ccc(C(=O)N[C@@H](CCC(=O)NCCNC(=O)CN(CCN(CCN(CC(=O)[O-])CC(=O)[O-])CC(=O)[O-])CC(=O)[O-])C(=O)O)cc3)nc2c(=O)[nH]1.[111In] [^111In-DTPA-Folate, reference compound]	> 94%

Source: US7862798B2, “Vitamin-targeted imaging agents” (Endocyte, Inc., priority 2002, dated 2011)
